Experimental data reported in PubChem BioAssay AID588778 (Southern Research Institute, 2011).
In all, about 10,000 compounds went through this assay and fewer than 10 were called active. Inconclusive means that the source gave no clear call. Such entries were picked first, then a sample of the others. The rule behind the calls is not given here.

assay: Vibrio cholerae motility inhibitors, OD read-out (AID 588778); conditions: stronger effect = higher value, concentration not given here

SMILES | inhibition
CCn1ccc(C(=O)Nc2ccc(C(F)(F)F)cc2Cl)n1 | inactive: -7.69%
O=C(CSc1ccccc1)Nc1cc(Cl)c(O)c(Cl)c1 | inconclusive: 105%
O=C(c1ccc(Br)cc1)n1c(Cc2ccccc2)nc2ccccc21 | inconclusive: 133%
N/C(=N\c1nc(C(F)(F)F)cc(C(F)(F)F)n1)Nc1ccc([N+](=O)[O-])cc1 | inconclusive: 127%
CSc1ncc(C(=O)Nc2nccs2)cn1 | inconclusive: 117%
O=C(Cn1cnc2ccccc2c1=O)c1ccc(Br)cc1 | inactive: -17.8%
O=C(Cc1ccccc1Cl)c1ccc(O)c(O)c1O | inactive: 12.7%
O=C1CCCC2=C1Sc1ccc(Cl)cc1N2 | inconclusive: 147%
S=C(NCc1ccco1)NNC(=S)Nc1ccc(Cl)cc1 | inactive: 13.3%
COc1cc(SC)ccc1C(=O)Nc1cccc(C(F)(F)F)c1 | inactive: 0.295%
Cc1cc(N2C(=O)CC(Cc3ccc(Cl)cc3)C2=O)no1 (configuration not stated) | inactive: 1.86%
O=C(Nc1cccc(Cl)c1)Nc1ccc(N2CCOCC2)c(C(F)(F)F)c1 | inconclusive: 59.8%
COC(=O)C1=C(C)N=C2SCCC(=O)N2C1/C=C/c1ccccc1 (configuration not stated) | inactive: -20.3%
O=[N+]([O-])c1cc(CN2CCOCC2)c2cccnc2c1O | inconclusive: 89.3%
Cc1c(C=C(C#N)C#N)c(C)c([N+](=O)[O-])c(C)c1[N+](=O)[O-] | inconclusive: 122%
CC(=O)Oc1ccccc1C(=O)NCCC1=CCCCC1 | inconclusive: 70.2%

SMILES | inhibition
Cc1cccc(NC(=S)NC2CCCC2)n1 | inconclusive: 28.1%
CCC(C(=O)Nc1ncn[nH]1)c1ccccc1 (configuration not stated) | inconclusive: 45%
CCOC(=O)c1ccc(NC(=S)NCCc2ccccc2F)cc1 | inconclusive: 84%
CC(=O)CSc1nnc(-c2cccnc2)o1 | inactive: -0.39%
CCCOc1ccc(CNC(=O)NCc2ccc(OC(C)C)cc2)cc1 | inconclusive: 33.3%
Oc1cc(Oc2ccccc2)ccc1Cl | inconclusive: 150%
Cc1cc(C)c(CCl)c(C)c1/C=N/Nc1ccc([N+](=O)[O-])cc1[N+](=O)[O-] | inconclusive: 41%
CC(=O)Nc1cccc(NS(=O)(=O)Cc2ccc(Cl)cc2)c1 | inconclusive: 147%
COCCCNC(=S)NNC(=O)c1ccccn1 | inconclusive: 143%
O=c1cc(-c2ccccc2)nc(-c2ccccc2)o1 | inconclusive: 98.1%
O=C(Nc1cccc(I)c1)C(Cl)Cl | inconclusive: 192%
Cc1ccc2c(c1)C(=O)C(=O)N2 | inactive: 26.8%
O=C(c1ccc(Sc2nnc(Cc3ccccc3)n2-c2ccccc2)c([N+](=O)[O-])c1)N1CCCC1 | inactive: -6.85%
CC(=O)NC(c1ccc2c(c1)OCO2)c1ccc2cccnc2c1O (configuration not stated) | inconclusive: 56.6%
O=C(Nc1cc(Cl)ccc1O)C(c1ccccc1)c1ccccc1 | inconclusive: 38.2%
CCOC(=O)C1(NC(=S)N(CC)CC)Sc2cc(C)ccc2NC1=O (configuration not stated) | inactive: 12.1%

Nine entries from above, comma-delimited:
SMILES,inhibition
Cc1cccc(NC(=S)NC2CCCC2)n1,inconclusive: 28.1%
CCC(C(=O)Nc1ncn[nH]1)c1ccccc1 (configuration not stated),inconclusive: 45%
CCOC(=O)c1ccc(NC(=S)NCCc2ccccc2F)cc1,inconclusive: 84%
CC(=O)CSc1nnc(-c2cccnc2)o1,inactive: -0.39%
CCCOc1ccc(CNC(=O)NCc2ccc(OC(C)C)cc2)cc1,inconclusive: 33.3%
Oc1cc(Oc2ccccc2)ccc1Cl,inconclusive: 150%
Cc1cc(C)c(CCl)c(C)c1/C=N/Nc1ccc([N+](=O)[O-])cc1[N+](=O)[O-],inconclusive: 41%
CC(=O)Nc1cccc(NS(=O)(=O)Cc2ccc(Cl)cc2)c1,inconclusive: 147%
COCCCNC(=S)NNC(=O)c1ccccn1,inconclusive: 143%
